Laboratory results taken from US20240016931A1.
Changes are numbered by the printed parent chain. These are yes or no findings as the source states them, for the method shown. Some results given as binding are weak or reduced against the parent protein; the word gives no strength. One block for each binder: values may come before it.

Tests used:
[1] = molecular target: His-tagged human TSLP antigen (huTSLP-his) (human); test: ELISA on human TSLP
[2] = molecular target: His-tagged human TSLP antigen (huTSLP-his) (human); test: ELISA, coated huTSLP-his

binding [1]: binds
binding [2]: binds
B1: hu119-23 (antibody, human IgG1, kappa, V domains shown)
VH: EVQLVQSGAEVKKPGSSVKVSCKASGFTFSTYNMHWVKHAPGQGLEWIGAIYPGNGETSYNQKFKDRATLTVDKSTSTAYMELSSLRSEDTAVYYCAREDDYGEGYFDVWGQGTTVTVSS
VL: DIVLTQSPATLSLSPGERATLSCRASESVDNSGLSFMHWYQQKPGQPPRLLLYRASNLGSGIPARFSGSGSGTDFTLTISSLEPEDFAVYYCQQINTDPLTFGQGTKLEIKR

binding [1]: binds
binding [2]: binds
B2: hu119-28 (antibody, human IgG1, kappa, V domains shown)
VH: B1 VH
VL: DIVLTQSPDSLAVSLGERATINCRASESVDSSGLSFMHWYQQKPGQPPKLLIYRASNLGSGVPDRFSGSGSGTDFTLTISSLQAEDVAVYYCQQINTDPLTFGQGTKLEIKR

binding [1]: binds
binding [2]: binds
B3: hu119-29 (antibody, human IgG1, kappa, V domains shown)
VH: B1 VH
VL: B2 VL with S31Q
